This assay concerns Acinetobacter baumannii. The conditions noted are these: Concentration 32 ug.mL-1, ASSAY_TEST Inhibition of Bacterial Growth, detection method Absorption (OD600), MEDIA CAMHB, plate type 384well, NBS, CORNING #3640, time 18 hr.

Several values for one entry are separate records, joined by “and”; a condition that tells them apart may be missing. Equal entries are not always repeated. This is one part of the list. Entries with a potency or affinity are not part of this list.

On to `CC1CN(C(=O)OCc2ccccc2)OC1O` (stereo unspecified), for which the Inhibition worked out at 8.1%. The same measure, in the same setting: then `O=C(OCc1ccccc1)N1CC(Cc2ccccc2)C(O)O1` (stereo unspecified), with 13.82%. As to `CC1CN(S(=O)(=O)c2ccc([N+](=O)[O-])cc2)N(C(=O)OC(C)(C)C)C1O` (stereo unspecified), the Inhibition is listed as 1.8%.

As to `CCCCCCCC1CN(S(=O)(=O)c2ccc(C)cc2)N(C(=O)OC(C)(C)C)C1=O` (stereo unspecified), the Inhibition was determined as 6.44%.

Take `O=C(OCc1ccccc1)N1OC(O)C2CCCCC21` (stereo unspecified): the Inhibition stood at 5.83%. Same read-out and setting: then `CC1C(O)N(C(=O)OC(C)(C)C)N(S(=O)(=O)c2ccc([N+](=O)[O-])cc2)C1C` (stereo unspecified), with -1.71%. For `CC(C)(C)OC(=O)N1C(O)C2CCCC2N1S(=O)(=O)c1ccc([N+](=O)[O-])cc1` (stereo unspecified), the Inhibition is listed as 1.22%. For the molecule `CC(C)(C)OC(=O)N1C(O)C(Cc2ccccc2)CN1S(=O)(=O)c1ccc([N+](=O)[O-])cc1` (stereo unspecified), the Inhibition (32 ug/mL) was 13.13% and 12.98% and 9.69%.

Consider `CC1CN(S(=O)(=O)c2ccc([N+](=O)[O-])cc2)N(C(=O)OC(C)(C)C)C1=O` (stereo unspecified), for which the Inhibition (32 ug/mL) is 12.36% and 6.82% and 9.25%. On to `CCCCCCCC1CN(S(=O)(=O)c2ccc(C)cc2)N(C(=O)OC(C)(C)C)C1O` (stereo unspecified), for which the Inhibition worked out at 10.38%.

With `CCCCCCCC1CN(S(=O)(=O)c2ccc(C)cc2)N(S(=O)(=O)c2ccc(C)cc2)C1O` (stereo unspecified), the Inhibition came out at 7.63%. For the molecule `Cc1ccc(S(=O)(=O)N2CC(C)C(=O)N2S(=O)(=O)c2ccc(C)cc2)cc1` (stereo unspecified), under “32 ug/mL”, the Inhibition was 3.83% and 8.89%. On the same count and under the same terms, then `O=C1ON(C(=O)OCc2ccccc2)CC1Cc1ccccc1` (stereo unspecified), with 9.32% and 10.71%; and `Cc1ccc(S(=O)(=O)N2CC(Cc3ccccc3)C(=O)N2S(=O)(=O)c2ccc(C)cc2)cc1` (stereo unspecified), with 8.79% and 11.99%; and `CC(C)(C)OC(=O)N1C(=O)C(Cc2ccccc2)CN1S(=O)(=O)c1ccc([N+](=O)[O-])cc1` (stereo unspecified), with 13.37% and 4.76% and -0.21%. Same read-out and setting: then `CC1CN(C(=O)OCc2ccccc2)OC1=O` (stereo unspecified), with 8.73% and 15.25% and 12.63%.
